Numbering of substitutions follows the chain as printed. No constants are given. Whether binding was seen depends on the method and setting. Binding seen in cells or lysates may run through a third protein. Some binding calls cover weakened binding; strength is not graded here. Where a sequence is shown, tags or fusion partners need not be part of it.
Key:
Assay in all cases: co-IP
WDR41-HA wild type = molecular target: T1, WDR41-HA wild type (UniProt Q9HAD4)
T1 sequence: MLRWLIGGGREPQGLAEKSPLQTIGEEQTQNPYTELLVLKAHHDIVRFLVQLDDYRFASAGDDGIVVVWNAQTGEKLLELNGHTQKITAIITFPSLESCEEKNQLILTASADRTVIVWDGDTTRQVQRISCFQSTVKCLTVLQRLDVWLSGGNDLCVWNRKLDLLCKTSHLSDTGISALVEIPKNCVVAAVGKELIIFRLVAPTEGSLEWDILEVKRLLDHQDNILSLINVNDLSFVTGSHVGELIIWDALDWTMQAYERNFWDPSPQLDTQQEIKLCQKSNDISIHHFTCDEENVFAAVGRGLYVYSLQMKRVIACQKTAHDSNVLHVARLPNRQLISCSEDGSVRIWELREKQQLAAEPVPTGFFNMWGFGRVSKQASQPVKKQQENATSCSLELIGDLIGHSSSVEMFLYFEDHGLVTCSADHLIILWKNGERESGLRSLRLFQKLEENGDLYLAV

[1] = molecular target: T2, WDR41-HA with complete deletion of the 7CD loop (residues 354-393) (UniProt Q9HAD4)
T2 sequence: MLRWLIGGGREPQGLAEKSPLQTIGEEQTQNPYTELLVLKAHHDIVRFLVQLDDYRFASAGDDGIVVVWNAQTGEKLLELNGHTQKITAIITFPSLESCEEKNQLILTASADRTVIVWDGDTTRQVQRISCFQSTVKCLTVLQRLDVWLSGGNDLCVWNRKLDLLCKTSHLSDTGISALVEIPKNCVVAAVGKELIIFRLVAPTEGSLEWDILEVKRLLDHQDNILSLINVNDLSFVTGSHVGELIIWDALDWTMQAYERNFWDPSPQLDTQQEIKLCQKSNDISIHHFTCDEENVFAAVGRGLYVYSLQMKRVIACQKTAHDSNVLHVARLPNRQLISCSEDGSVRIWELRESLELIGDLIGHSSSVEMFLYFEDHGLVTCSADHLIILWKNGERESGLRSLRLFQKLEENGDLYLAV

WDR41-HA M369A = molecular target: T3, WDR41-HA M369A (UniProt Q9HAD4)
T3 sequence: T1 sequence with M369A

WDR41-HA F372A = molecular target: T4, WDR41-HA F372A (UniProt Q9HAD4)
T4 sequence: T1 sequence with F372A

[2] = molecular target: T5, WDR41-HA with deletion of the turn sub-region of the 7CD loop (361-373) (UniProt Q9HAD4)
T5 sequence: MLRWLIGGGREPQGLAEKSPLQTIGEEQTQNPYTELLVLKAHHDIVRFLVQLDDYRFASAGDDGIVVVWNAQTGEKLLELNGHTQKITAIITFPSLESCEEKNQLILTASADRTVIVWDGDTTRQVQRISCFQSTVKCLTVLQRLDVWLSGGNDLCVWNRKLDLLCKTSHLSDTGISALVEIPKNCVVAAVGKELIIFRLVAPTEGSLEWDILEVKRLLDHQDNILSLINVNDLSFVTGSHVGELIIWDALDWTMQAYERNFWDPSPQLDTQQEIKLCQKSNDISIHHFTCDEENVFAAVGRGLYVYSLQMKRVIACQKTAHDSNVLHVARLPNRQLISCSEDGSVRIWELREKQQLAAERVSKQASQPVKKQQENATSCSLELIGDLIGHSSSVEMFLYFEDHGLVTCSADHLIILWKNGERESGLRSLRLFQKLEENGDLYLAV

[3] = molecular target: T6, WDR41-HA with the 7CD loop (residues 354-393) replaced by the flexible linker GGSGGGSG (UniProt Q9HAD4)
T6 sequence: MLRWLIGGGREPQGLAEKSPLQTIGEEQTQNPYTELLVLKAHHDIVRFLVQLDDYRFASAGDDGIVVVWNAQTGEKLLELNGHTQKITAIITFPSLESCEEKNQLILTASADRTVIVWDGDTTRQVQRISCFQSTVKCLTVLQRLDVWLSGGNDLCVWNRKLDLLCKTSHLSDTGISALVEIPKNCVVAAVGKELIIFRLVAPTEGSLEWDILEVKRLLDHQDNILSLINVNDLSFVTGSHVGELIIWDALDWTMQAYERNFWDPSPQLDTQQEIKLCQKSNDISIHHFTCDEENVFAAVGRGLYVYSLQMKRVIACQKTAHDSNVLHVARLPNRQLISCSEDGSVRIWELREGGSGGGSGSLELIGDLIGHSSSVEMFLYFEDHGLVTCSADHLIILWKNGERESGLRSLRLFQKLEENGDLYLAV

B1: PQLC2-FLAG wild type (protein, UniProt Q6ZP29 1-291)
chain: MVWKKLGSRNFSSCPSGSIQWIWDVLGECAQDGWDEASVGLGLISILCFAASTFPQFIKAYKTGNMDQALSLWFLLGWIGGDSCNLIGSFLADQLPLQTYTAVYYVLADLVMLTLYFYYKFRTRPSLLSAPINSVLLFLMGMACATPLLSAAGPVAAPREAFRGRALLSVESGSKPFTRQEVIGFVIGSISSVLYLLSRLPQIRTNFLRKSTQGISYSLFALVMLGNTLYGLSVLLKNPEEGQSEGSYLLHHLPWLVGSLGVLLLDTIISIQFLVYRRSTAASELEPLLPS
WDR41-HA wild type
  binding: binds
[1]
  binding: no binding
WDR41-HA M369A
  binding: no binding
WDR41-HA F372A
  binding: no binding
[2]
  binding: no binding
[3]
  binding: no binding

B2: SMCR8 (protein, UniProt Q8TEV9 1-937)
chain: MISAPDVVAFTKEEEYEEEPYNEPALPEEYSVPLFPFASQGANPWSKLSGAKFSRDFILISEFSEQVGPQPLLTIPNDTKVFGTFDLNYFSLRIMSVDYQASFVGHPPGSAYPKLNFVEDSKVVLGDSKEGAFAYVHHLTLYDLEARGFVRPFCMAYISADQHKIMQQFQELSAEFSRASECLKTGNRKAFAGELEKKLKDLDYTRTVLHTETEIQKKANDKGFYSSQAIEKANELASVEKSIIEHQDLLKQIRSYPHRKLKGHDLCPGEMEHIQDQASQASTTSNPDESADTDLYTCRPAYTPKLIKAKSTKCFDKKLKTLEELCDTEYFTQTLAQLSHIEHMFRGDLCYLLTSQIDRALLKQQHITNFLFEDFVEVDDRMVEKQESIPSKPSQDRPPSSSLEECPIPKVLISVGSYKSSVESVLIKMEQELGDEEYKEVEVTELSSFDPQENLDYLDMDMKGSISSGESIEVLGTEKSTSVLSKSDSQASLTVPLSPQVVRSKAVSHRTISEDSIEVLSTCPSEALIPDDFKASYPSAINEEESYPDGNEGAIRFQASISPPELGETEEGSIENTPSQIDSSCCIGKESDGQLVLPSTPAHTHSDEDGVVSSPPQRHRQKDQGFRVDFSVENANPSSRDNSCEGFPAYELDPSHLLASRDISKTSLDNYSDTTSYVSSVASTSSDRIPSAYPAGLSSDRHKKRAGQNALKFIRQYPFAHPAIYSLLSGRTLVVLGEDEAIVRKLVTALAIFVPSYGCYAKPVKHWASSPLHIMDFQKWKLIGLQRVASPAGAGTLHALSRYSRYTSILDLDNKTLRCPLYRGTLVPRLADHRTQIKRGSTYYLHVQSMLTQLCSKAFLYTFCHHLHLPTHDKETEELVASRQMSFLKLTLGLVNEDVRVVQYLAELLKLHYMQESPGTSHPMLRFDYVPSFLYKI
WDR41-HA wild type
  binding: binds
[1]
  binding: binds
WDR41-HA M369A
  binding: binds
WDR41-HA F372A
  binding: binds
[2]
  binding: binds
[3]
  binding: binds

— doi:10.1101/2020.07.15.204800 (bioRxiv, 2020)
